For at least one entry, the source does not settle the construct or the ends of the probe. At least one verdict rests on a figure or table, not on a statement of the authors.
Target: DNMT3A1 1-427 (NT-PWWP) (human) (UniProt Q9Y6K1)
Assay: EMSA
Settings: residues 1-427

“TATACGCGGCCGCCCTGGAGAATCCCGGTGCCGAGGCCGCTCAATTGGTCGTAGACAGCTCTAGCACCGCTTAAACGCACGTACGCGCTGTCCCCCGCGTTTTAACCGCCAAGGGGATTACTCCCTAGTCTCCAGGCACGTGTCAGATATATACATCCTGTGCAATGTGTTCCAT (double strand) [free 175 bp Widom601 DNA]”: binds.
